# Test results reported in PMC10903463.
# Results are given in words; binding and its absence hold for the method and conditions named. In cells and extracts the contact can be indirect. These calls come from enrichment with a bait or labelling near it, and not all partners need be listed. Tags and fused reporters may be left off the sequences shown.
# T1: WT CSP-V5-miniTurbo (human) (UniProt Q9H3Z4)
# T1 sequence: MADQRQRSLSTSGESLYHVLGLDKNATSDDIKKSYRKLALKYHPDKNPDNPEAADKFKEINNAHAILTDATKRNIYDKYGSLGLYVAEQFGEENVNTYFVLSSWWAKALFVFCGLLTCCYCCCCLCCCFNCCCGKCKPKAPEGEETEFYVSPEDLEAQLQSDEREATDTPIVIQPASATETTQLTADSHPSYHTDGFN
# Target: T1, WT CSP-V5-miniTurbo (human)
# Assay: proximity labelling; BioID in living PC12 cells stably expressing WT or L115R CSP-V5-miniTurbo; 100 μM biotin overnight; RIPA lysis, streptavidin beads, on-bead tryptic digestion, LC-MS with label-free quantification, three biological repeats; compared with miniTurbo control and no biotin control
row,Molecule,binding
1,Atp2b4 (from UniProt Q64542-4 1-1191),binds
2,Clk2 (from UniProt Q5XI98),binds
3,Dnajb1 (from UniProt B0K030 1-340),binds
4,Gnas (from UniProt Q63803 1-1144),binds
5,Sept8 (from UniProt B0BNF1),binds
6,Sept9 (from UniProt Q9QZR6),binds
7,Snx3 (from UniProt Q5U211 1-162),binds
8,Sptbn1 (from UniProt G3V6S0 1-2363),binds
9,Trpv2 (from UniProt Q9WUD2 1-761),binds
10,"Ctnnd1 (protein, UniProt D3ZZZ9 1-917) MDDSEVESTASILASVKEQEAQFEKLTRALEEERRHVSAQLERVRVSPQDANSLMANGTLTRRHQNGRFVGDADLERQKFSDLKLNGPQDHNHLLYSTIPRMQEPGQIVETYTEEDPEGAMSVVSVETSDDGTTRRTETTVKKVVKTMTTRTVQPVPMGPDGLPVDASAVSNNYIQTLGRDFRKNGNGGPGPYVGQAGTATLPRNFHYPPDGYGRHYEDGYPGGSDNYGSLSRVTRIEERYRPSMEGYRAPSRQDVYGPQPQVRVGGSSVDLHRFHPEPYGLEDDQRSMGYDDLDYGMMSDYGTARRTGTPSDPRRRLRSYEDMIGEEVPPDQYYWAPLAQHERGSLASLDSLRKGMPPPPNWRQPELPEVIAMLGFRLDAVKSNAAAYLQHLCYRNDKVKTDVRKLKGIPILVGLLDHPKKEVHLGACGALKNISFGRDQDNKIAIKNCDGVPALVRLLRKARDMDLTEVITGTLWNLSSHDSIKMEIVDHALHALTDEVIIPHSGWEREPNEDCKPRHIEWESVLTNTAGCLRNVSSERSEARRKLRECDGLVDALIFIVQAEIGQKDSDSKLVENCVCLLRNLSYQVHREIPQAERYQEALPSVANSTGPHAASCFGAKKGKDEWFSRGKKPTEDPANDTVDFPKRTSPARGYELLFQPEVVRIYISLLKESKTPAILEASAGAIQNLCAGRWTYGRYIRSALRQEKALSAIADLLTSEHERVVKAASGALRNLAVDARNKELIGKHAIPNLVKNLPGGQQNSSWNFSEDTVVSILNTINEVIAENLEAAKKLRETQGIEKLVLINKSGNRSEKEVRAAALVLQTIWGYKELRKPLEKEGWKKSDFQVNLNNASRSQSSHSYDDSTLPLIDRNQKSDNNYSTLNERGDHNRTLDRSGDLGDMEPLKGAPLMQKI",binds
11,"Slc9a3r1 (protein, UniProt Q9JJ19 1-356) MSADAAAGEPLPRLCCLEKGPNGYGFHLHGEKGKVGQFIRLVEPGSPAEKSGLLAGDRLVEVNGENVEKETHQQVVSRIRAALNAVRLLVVDPETDEQLKKLGVPIREELLRAQEKSEHTEPPAAADTKKAGDQNEAEKSHLERCELRPRLCTMKKGPNGYGFNLHSDKSKPGQFIRAVDPDSPAEASGLRAQDRIVEVNGVCMEGKQHGDVVSAIKAGGDEAKLLVVDKETDEFFKKCRVTPSQEHLDGPLPEPFSNGEIQKENSREALVEPASESPRPALARSASSDTSEELNAQDSPKRHDSTEPSSTSSSSDPILDFNISLAVAKERAHQKRSSKRAPQMDWSKKNELFSNL",binds
12,"ykt6 (protein, UniProt Q5EGY4 1-198) MKLYSLSVFYKGEPKAVLLKAAYDVSSFSFFQRSSVQEFMTFTSQLIVERSAKGSRASVKEQEYLCHVYVRSDSLAGVVIADSEYPSRVAFTLLEKVLDEFSKQVDRIDWPVGSPATIHYTALDGHLSRYQNPREADPMSKVQAELDETKIILHNTMESLLERGEKLDDLVSKSEVLGTQSKAFYKTARKQNSCCAIM",binds
13,"SNAP-29 (protein, UniProt Q9Z2P6 1-257) MSGYPKSYNPFDDDVEDEDTRPAPWKDARDLPDGPDPPIDRQQYLRQEVLRGPSATAASTSRSLFLMYESEKIGVASSEELVRQRGVLEHTEKMVDKMDQDLKMSQKHINSIKSVFGGFINYFKSKPVEPPPEQNGSIVPQPSSRLKEAINTSKDQESKYQASHPNLRRLHDAELDSVPASTVNTEVYPKNSSLRAYHQKIDSNLDELSVGLGRLKDIALGMQTEIEEQDDILDRLTTKVDKLDVNIKSTEKKVRQL",binds
14,"Basp1 (protein, UniProt Q05175 1-220) MGSKLSKKKKGYNVNDEKAKDKDKKAEGAGTEEEGTQKESEPQAAADATEVKESAEEKPKDAADGEAKAEEKEADKAAAKEEAPKAEPEKSEGAAEEQPEPAPAPEQEAAAPGPAAGGEAPKAGEASAESTGAADGAPQEEGEAKKTEAPAAGPEAKSDAAPAASDSKPSTEPAPSSKETPAASEAPSSAAKAPAPAAPAAEPQAEAPVASSEQSVAVKE",binds
15,"Nudcd2 (protein, UniProt Q5M823 1-157) MSAPFEERSGVVPCATPWGQWYQTLEEVFIEVQVPPGTRAQDIQCGLQSRHVALAVGGREILKGKLFDSTIADEGTWTLEDRKMVRIVLTKTKRDAANCWTSLLESEYAADPWVQDQMQRKLTLERFQKENPGFDFSGAEISGNYTKGGPDFSNLEK",binds
16,"Add1 (protein, UniProt Q63028 1-735) MNGDTRAAVVTSPPPTTAPHKERYFDRVDENNPEYLRERNMAPDLRQDFNMMEQKKRVSMILQSPAFCEELESMIQEQFKKGKNPTGLLALQQIADFMTASVPNVYPAAPQGGMAALNMSLGMVTPVNDLRGSDSIAYDKGEKLLRCKLAAFYRLADLFGWSQLIYNHITTRVNSEQEHFLIVPFGLLYSEVTASSLVKVNLQGDIVDRGSTNLGVNQAGFTLHSAIYAARPDAKCIVHIHTPAGAAVSAMKCGLLPISPEALSLGEVAYHDYHGILVDEEEKILIQKNLGPKSKVLILRNHGLVSVGESVEEAFYYIHNLVVACEIQVRTLASAGGPDNLVLLDPGKYKAKSRSPGTPAGEGSGSPPKWQIGEQEFEALMRMLDNLGYRTGYPYRYPALRERSKKYSDVEVPASVTGHSFASDGDSGTCSPLRHSFQKQQREKTRWLNSGRGDDASEEGQNGSSPKSKTKWTKEDGHRTSTSAVPNLFVPLNTNPKEVQEMRNKIREQNLQDIKTAGPQSQVLCGVMMDRSLVQGELVTASKAIIEKEYQPHVIVSTTGPNPFNTLTDRELEEYRREVERKQKGSEENLDETREQKEKSPPDQSAVPNTPPSTPVKLEGGLPQEPTSRDGSDATTSKPTPPDLSPDEPSEALAFPTVAEEAHASPDTTQPLAEADPEPASASAPGAEEVASPATEEGSPMDPGSDGSPGKSPSKKKKKFRTPSFLKKSKKKSDS",binds

# Further lines, results first:
row,binding,Molecule
1,binds,Baiap2 (from UniProt Q6GMN2 1-535)
2,binds,Epb41l2 (from UniProt D3ZDT1 1-926)
3,binds,Pcdh1 (rat (endogenous in PC12))
4,binds,Pkn2 (from UniProt O08874 1-985)
5,binds,Sept6 (from UniProt B5DFG5)
6,binds,Yes1 (from UniProt F1LM93 1-541)
7,binds,"Rab11B (protein, UniProt O35509 1-218) MGTRDDEYDYLFKVVLIGDSGVGKSNLLSRFTRNEFNLESKSTIGVEFATRSIQVDGKTIKAQIWDTAGQERYRAITSAYYRGAVGALLVYDIAKHLTYENVERWLKELRDHADSNIVIMLVGNKSDLRHLRAVPTDEARAFAEKNNLSFIETSALDSTNVEEAFKNILTEIYRIVSQKQIADRAAHDESPGNNVVDISVPPTTDGQKPNKLQCCQNL"
8,binds,"Ctnna1 (protein, UniProt Q5U302 1-922) MVTADWTERRSKKEMTAVHTGNINFKWDPKSLEIRTLAVERLLEPLVTQVTTLVNTNSKGPSNKKRGRSKKAHVLAASVEQATENFLEKGDKIAKESQFLKEELVAAVDDVRKQGDLMKSAAGEFADDPCSSVKRGNMVRAARALLSAVTRLLILADMADVYKLLVQLKVVEDGILKLRNAGNEQDLGIQYRALKPEVDKLNIMAAKRQQELKDVGHRDQMAAARGILQKNVPILYTASQACLQHPDVAAYKANRDLIYKQLQQAVTGISNAAQATASDDASQQQGGGGGGGELAYALNNFDKQIIVDPLSFSEERFRPSLEERLESIISGAALMADSSCTRDDRRERIVAECNAVRQALQDLLSEYMGNAGRKERSDALNSAIDKMTKKTRDLRRQLRKAVMDHVSDSFLETNVPLLVLIEAAKNGNEKEVKEYAQVFREHANKLIEVANLACSISNNEEGVKLVRMSASQLEALCPQVINAALALAAKPQSKLAQENMDLFKEQWEKQVRVLTDAVDDITSIDDFLAVSENHILEDVNKCVIALQEKDVDGLDRTAGAIRGRAARVIHVVTSEMDNYEPGVYTEKVLEATKLLSNTVMPRFTEQVEAAVEALSSDPAQPMDENEFIDASRLVYDGIRDIRKAVLMIRTPEELDDSDFETEDFDVRSRTSVQTEDDQLIAGQSARAIMAQLPQEQKAKIAEQVASFQEEKSKLDAEVSKWDDSGNDIIVLAKQMCMIMMEMTDFTRGKGPLKNTSDVISAAKKIAEAGSRMDKLGRTIADHCPDSACKQDLLAYLQRIALYCHQLNICSKVKAEVQNLGGELVVSGVDSAMSLIQAAKNLMNAVVQTVKASYVASTKYQKSQGMASLNLPAVSWKMKAPEKKPLVKREKQDETQTKIKRASQKKHVNPVQALSEFKAMDSI"
9,binds,"Esyt2 (protein, UniProt D3ZJ32 1-845) MSSAGGEGPEAGTGRAGGRSEPEAPGSALSVDLPGLLGQLARSFALLLPVYALGYLGLSFSWVLLALGLLAWCRRSRGLKASRLCRALALLEDEEQAVRLGVRACDLPAWVHFPDTERAEWLNKTVKHMWPFICQFIEKLFRETIEPAVRGANAHLSTFSFTKVDVGHQPLRVNGVKVYTENVDKRQIILDLQISFVGNCEIDLEIKRYFCRAGVKSIQIHGTMRVILEPLIGDMPLVGALSIFFLRKPLLEINWTGLTNLLDIPGLNGLSDTIILDIISNYLVLPNRITVPLVSEVQIAQLRFPIPKGVLRIHFIEAQDLQGKDTYLKGLVKGKSDPYGIIRVGNQIFQSKVVKENLSPKWNEVYEALVYEHPGQELEIELFDEDPDKDDFLGSLMIDLIEVEKERLLDEWFTLDEVPKGKLHLKLEWLTLMPDAANLDKVLADIRADKDQANDGLSSALLILYLDSARNLPSGKKINSNPNPLVQMSVGHKAQESKIRYKTSEPVWEENFTFFIHNPKRQDLEVEVKDEQHQCSLGSLRIPLSQLLASDNMTINQRFQLSNSGPNSTLKMKIALRVLHLEKQERPPDYQHSAQVKRPSVSKEGRKMPIKSQMSASPGTGGTNTAPSTPVMGVDDKPAMEEKPQPPEASPLGQRDLGRSSSSLLASPSHIAAKEPTPSIASDISLPIATQELRQRLRQLENGTTLGQSPLGQIQLTIRHSSQRNKLIVVVHSCRNLIAFSEDGSDPYVRMYLLPDKRRSGRRKTHVSKKTLNPVFDQSFDFSVSLPEVQRRTLDVAVKNSGGFLSKDKGLLGKVLVALASEELAKGWTQWYDLTEDGTRPQVIT"
